Here are results for two molecules from article PMC5851652.

Results are given in words; binding and its absence hold for the method and conditions named. In cells and extracts the contact can be indirect. Binding calls can cover weak binding; strength is not graded here. Tags and fused reporters may be left off the sequences shown.

Test [1] deals with T1, human OASL-V5 WT (human) (UniProt Q15646).
T1 sequence: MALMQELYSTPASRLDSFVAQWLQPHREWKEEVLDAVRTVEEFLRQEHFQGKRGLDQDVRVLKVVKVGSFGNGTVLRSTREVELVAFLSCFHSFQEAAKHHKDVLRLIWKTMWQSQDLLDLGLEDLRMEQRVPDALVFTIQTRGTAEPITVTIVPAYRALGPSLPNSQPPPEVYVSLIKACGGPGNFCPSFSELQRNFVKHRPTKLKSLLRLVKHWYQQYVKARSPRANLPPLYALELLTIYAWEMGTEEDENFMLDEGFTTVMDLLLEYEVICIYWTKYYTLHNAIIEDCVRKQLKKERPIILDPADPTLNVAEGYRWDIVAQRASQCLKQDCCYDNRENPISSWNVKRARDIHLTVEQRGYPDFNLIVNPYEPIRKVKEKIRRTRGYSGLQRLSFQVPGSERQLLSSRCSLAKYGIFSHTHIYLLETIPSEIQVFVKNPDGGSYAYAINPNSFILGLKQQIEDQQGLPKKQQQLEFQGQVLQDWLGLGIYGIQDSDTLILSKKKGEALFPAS
The experiment in a line: co-IP; anti-V5 immunoprecipitation of RIPA lysates of co-transfected 293T cells; immunoblot with anti-GFP and anti-V5. For orientation: In western blotting, separated proteins are transferred to a membrane and probed.

For test [2], the target named is MCMV M76-myc (murine cytomegalovirus (MCMV), Smith strain). The experiment in a line: co-IP; anti-myc immunoprecipitation of RIPA lysates of co-transfected 293T cells; immunoblot with anti-V5 and anti-myc.
Test [3] has as its target HCMV UL76-myc (human cytomegalovirus (HCMV), Merlin). The description is as above.
For test [4], the target named is KSHV ORF20A-myc (Kaposi's sarcoma-associated herpesvirus (KSHV)). The test is described as above.
Test [5] addresses KSHV ORF20B-myc (Kaposi's sarcoma-associated herpesvirus (KSHV)). The description is as above.
Test [6] concerns the target ORF20WT-myc-GFP (Kaposi's sarcoma-associated herpesvirus (KSHV)). Kind of test: co-IP; anti-GFP immunoprecipitation of RIPA lysates of co-transfected 293T cells; immunoblot with anti-V5 and anti-GFP.

Consider ORF20WT-myc-GFP, for which, in test [1], the binding entry was “binds”.

B1: human OASL-V5 WT (protein, UniProt Q15646 1-514)
chain: MALMQELYSTPASRLDSFVAQWLQPHREWKEEVLDAVRTVEEFLRQEHFQGKRGLDQDVRVLKVVKVGSFGNGTVLRSTREVELVAFLSCFHSFQEAAKHHKDVLRLIWKTMWQSQDLLDLGLEDLRMEQRVPDALVFTIQTRGTAEPITVTIVPAYRALGPSLPNSQPPPEVYVSLIKACGGPGNFCPSFSELQRNFVKHRPTKLKSLLRLVKHWYQQYVKARSPRANLPPLYALELLTIYAWEMGTEEDENFMLDEGFTTVMDLLLEYEVICIYWTKYYTLHNAIIEDCVRKQLKKERPIILDPADPTLNVAEGYRWDIVAQRASQCLKQDCCYDNRENPISSWNVKRARDIHLTVEQRGYPDFNLIVNPYEPIRKVKEKIRRTRGYSGLQRLSFQVPGSERQLLSSRCSLAKYGIFSHTHIYLLETIPSEIQVFVKNPDGGSYAYAINPNSFILGLKQQIEDQQGLPKKQQQLEFQGQVLQDWLGLGIYGIQDSDTLILSKKKGEALFPAS
For B1, the binding result in test [2] is on record as “binds”; in test [3] it was “binds weakly”; in test [4], “binds”; in test [5] it was “binds”; in test [6] it was “binds”.
